Data from PMC8972991.
These are yes or no findings as the source states them, for the method shown. A result given as binding can be weak or reduced; the word gives no strength. For some assays here: Tags and fused reporters may be left off the sequences shown. For some assays here: Binding seen in cells or lysates may run through a third protein.

B1: Snakin-2 (StSN2) (protein, UniProt Q93X17 39-104)
chain: YSYKKIDCGGACAARCRLSSRPRLCNRACGTCCARCNCVPPGTSGNTETCPCYASLTTHGNKRKCP

Assays:
[1] = target: T1, StSN2-pGBKT7 (full-length StSN2, yeast two-hybrid bait fusion) (potato) (UniProt Q93X17); test: two-hybrid; StSN2-pGBKT7 and StGAPC1-pGADT7 cotransformed into yeast AH109; growth on SD/-Leu-Trp-His plates
T1 sequence: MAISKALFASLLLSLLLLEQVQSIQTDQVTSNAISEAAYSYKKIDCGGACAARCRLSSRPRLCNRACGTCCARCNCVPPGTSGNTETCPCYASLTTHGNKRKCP

[2] = target: Cytoplasmic glyceraldehyde-3-phosphate dehydrogenase 1 (StGAPC1) (potato (endogenous in tubers)); test: co-IP; tuber total protein, 10 ul purified anti-GAPC1 antibody and 20 ul protein A beads, overnight at 4°C; western blot

| Molecule | binding [1] | binding [2] |
| --- | --- | --- |
| StGAPC1-pGADT7 (yeast two-hybrid prey fusion) (potato) (enzyme) | binds |  |
| B1 |  | binds |
